Paper PMC3848888
These are yes or no findings as the source states them, for the method shown. Binding seen in cells or lysates may run through a third protein. Some results given as binding are weak or reduced against the parent protein; the word gives no strength. Sequences can lack the tags named with a protein.

By UniProt entry, the sequences of proteins in these tests, tags left out.
UniProt P04618: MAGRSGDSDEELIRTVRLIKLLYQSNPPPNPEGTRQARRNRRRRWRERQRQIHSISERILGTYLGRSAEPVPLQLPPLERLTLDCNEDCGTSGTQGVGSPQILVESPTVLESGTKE

Tests used:
His PACT [1] = biological target: T1, His PACT (UniProt O75569); assay: co-IP; His TRBP or His PACT with Myc Rev or RmGST; cell extracts treated with 50 ug/ml RNase A prior to co-immunoprecipitation (presence and absence compared)
T1 sequence: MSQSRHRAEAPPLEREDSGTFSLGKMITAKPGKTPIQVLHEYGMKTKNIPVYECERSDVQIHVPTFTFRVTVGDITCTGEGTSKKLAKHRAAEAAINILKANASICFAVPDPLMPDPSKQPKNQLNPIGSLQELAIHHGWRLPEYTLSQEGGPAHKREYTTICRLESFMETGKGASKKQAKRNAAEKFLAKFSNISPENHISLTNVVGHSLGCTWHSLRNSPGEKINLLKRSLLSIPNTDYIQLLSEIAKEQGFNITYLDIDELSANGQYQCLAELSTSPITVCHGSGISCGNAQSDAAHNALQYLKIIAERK

His TRBP [2] = biological target: T2, His TRBP (UniProt Q15633); assay: as above
T2 sequence: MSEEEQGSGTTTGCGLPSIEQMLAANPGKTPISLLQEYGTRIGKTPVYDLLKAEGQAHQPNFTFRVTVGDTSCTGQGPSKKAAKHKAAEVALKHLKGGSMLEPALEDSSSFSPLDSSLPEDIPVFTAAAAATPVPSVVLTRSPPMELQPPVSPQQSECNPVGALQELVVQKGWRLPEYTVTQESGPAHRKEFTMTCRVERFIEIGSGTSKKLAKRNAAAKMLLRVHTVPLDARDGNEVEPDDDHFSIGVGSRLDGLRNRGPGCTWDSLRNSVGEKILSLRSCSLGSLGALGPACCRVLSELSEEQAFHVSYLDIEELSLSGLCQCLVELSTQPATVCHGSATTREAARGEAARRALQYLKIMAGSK

His PACT [3] = biological target: T1, His PACT; assay: co-IP; HEK 293T co-transfected with His TRBP or His PACT and Myc Tat, Myc Rev or their ARM deletion mutants, with and without 30 uM Adox; lysates on Ni-NTA beads, 4°C, 2 hours; blots with anti-His and anti-myc
His TRBP [4] = biological target: T2, His TRBP; assay: as above

## Myc Rev (HIV-1 Rev, wild type) (from UniProt P04618 1-116)
His PACT [1]
  binding: binds
His TRBP [2]
  binding: binds
His PACT [3]
  binding: binds
His TRBP [4]
  binding: binds

## Myc Tat (HIV-1 Tat, wild type) (from UniProt P04608 1-86)
His PACT [3]
  binding: binds
His TRBP [4]
  binding: binds

## Myc ∆Tat (ARM deletion mutant of HIV-1 Tat, 48-60 deleted) (from UniProt P04608 1-86)
His PACT [3]
  binding: binds
His TRBP [4]
  binding: binds
